Assay results: patent US10906990B2, “Antibody with non-natural amino acid introduced therein” (RIKEN, priority 2015, dated 2021)

Experiment: Reactivity with Alexa 488 DIBO (click chemistry), analysed by cation exchange chromatography
[1] = Trastuzumab-Fabs with o-Az-Z-Lys at a plurality of sites, 100% when every o-Az-Z-Lys carries Alexa 488, Table 8
[2] = Trastuzumab IgG antibodies with o-Az-Z-Lys, 100% when two molecules of Alexa 488 are added, Table 9

Row | SMILES | Reactivity (%) [1] [%] | Reactivity (%) [2] [%]
1 | [N-]=[N+]=Nc1ccc(COC(=O)NCCCC[C@H](N)C(=O)O)cc1 [para-azido-Z-lysine, N6-{[(4-azidobenzyl)oxy]carbonyl}-L-lysine hydrochloride] | 71.1 | –
2 | [N-]=[N+]=Nc1ccccc1COC(=O)NCCCC[C@H](N)C(=O)O [ortho-azido-Z-lysine, N6-{[(2-azidobenzyl)oxy]carbonyl}-L-lysine hydrochloride] | 84.2 | –
3 | C#Cc1cccc(COC(=O)NCCCC[C@H](N)C(=O)O)c1 [meta-ethynyl-Z-lysine, N6-{[(3-ethynylbenzyl)oxy]carbonyl}-L-lysine hydrochloride] | 82.2 | –
4 | N[C@@H](CCCCNC(=O)OCc1cccc(C=O)c1)C(=O)O [meta-formyl-Z-lysine, N6-{[(3-formylbenzyl)oxy]carbonyl}-L-lysine hydrochloride] | – | 88.4
5 | Nc1cccc(COC(=O)NCCCC[C@H](N)C(=O)O)c1 [meta-amino-Z-lysine, N6-{[(3-aminobenzyl)oxy]carbonyl}-L-lysine hydrochloride] | – | 90.1
6 | C#Cc1ccccc1COC(=O)NCCCC[C@H](N)C(=O)O [ortho-ethynyl-Z-lysine, N6-{[(2-ethynylbenzyl)oxy]carbonyl}-L-lysine hydrochloride] | 92.8 | –
7 | [N-]=[N+]=Nc1cccc(COC(=O)NCCCC[C@H](N)C(=O)O)c1 [meta-azido-Z-lysine, N6-{[(3-azidobenzyl)oxy]carbonyl}-L-lysine hydrochloride] | 79.2 | –
8 | C#Cc1ccc(COC(=O)NCCCC[C@H](N)C(=O)O)cc1 [para-ethynyl-Z-lysine, N6-{[(4-ethynylbenzyl)oxy]carbonyl}-L-lysine hydrochloride] | 81.2 | –

Structures can show the parent of a compound that is named as a salt.
